# Test results: paper PMC12040169 (PLOS Biology, 2025)
# The other results are listed elsewhere or left out.
# Tested on: T1, CTL2-GFP (C. trachomatis L2/434/Bu, GFP-expressing)
# T1 construct: L2/434/Bu, GFP-expressing
# Set-up: species or system HeLa; Intracellular C. trachomatis growth in HeLa cells, bulk GFP fluorescence relative to DMSO
# Settings: bulk GFP, single well; 28.5 h, 10 µM; inhibitor
row,Structure (SMILES),% of control remaining [%]
1,Oc1ccc(SCCCCN2CCCCC2)cc1 [CBK033676],92.9606
2,CC(=O)N1CCC(c2cc(-c3cccc(F)c3)n(C)n2)CC1 [CBK282097],113.15
3,COc1ccc(-n2ncc(-c3ccc(Br)cc3F)n2)cc1OC [CBK112915],115.093
4,OCc1ccccc1-c1cnc(N2CCOCC2)c2nccn12 [CBK091265],107.804
5,COC(=O)C[C@@H](C)NC(=O)[C@](OC)(c1ccccc1)C(F)(F)F [CBK017864],115.119
6,NC1=C(c2ccccc2)C(=O)CN1NC(=O)COc1ccccc1-c1ccccc1 [CBK269258],98.1563
7,CN1CCN(C(=O)c2ccccc2NC(=O)c2ccc(C(C)(C)C)cc2)CC1 [CBK270054],153.797
8,Cc1ccc(-n2sc(=O)n(CCc3ccccc3)c2=O)cc1 [CBK113496],77.4223
9,Cc1nc(C)n(CC2CN(Cc3cn4ccccc4n3)CCO2)n1 (stereo not drawn) [CBK303999],148.488
10,O=C(CN1CCCC1c1cccs1)Nc1cccc(C(=O)NC2CC2)c1 (stereo not drawn) [CBK305895],76.3591
11,CCN(CC(C)C#N)C(=O)c1cc2ccccc2oc1=O (stereo not drawn) [CBK305992],130.945
12,Cc1nnc(N2CCN(Cc3sccc3Cl)CC2)nc1C [CBK304075],129.774
13,O=C(O)COc1ccccc1/C=N/n1c(S)nnc1-c1ccc(Cl)cc1Cl [CBK264418],128.818
14,Cc1csc(C2CN(Cc3cn(C)c(=O)n(C)c3=O)CCO2)n1 (stereo not drawn) [CBK305475],104.176
15,CC(=O)Cn1c(CN2CCOCC2)nc2c1c(=O)n(C)c(=O)n2C [CBK269508],122.991
16,CN1CCN(c2nc(Nc3ccc(Cl)cc3)nc(Oc3ccccc3)n2)CC1 [CBK004778],82.5563
17,O=C(c1ccccc1)c1ccc2[nH]c(-c3ccc(NC(=O)c4ccccc4Cl)cc3)nc2c1 [CBK262706],82.4346
18,OC1(c2cccnc2F)CCN(Cc2ccccc2F)CC1 [CBK284372],118.333
19,O=C(NCC1(c2ccccc2)CCOCC1)c1ccno1 [CBK067408],106.217
20,CCN(CC)C(=O)C1C2CCC3(CC(=O)c4ccccc4O3)C21 (stereo not drawn) [CBK284923],59.7605
21,C=C(C)Cn1c(SCC(=O)O)nnc1-c1ccc([N+](=O)[O-])cc1 [CBK263159],100
22,O=C(O)c1ccccc1NC(=S)NC(=O)c1ccccc1[N+](=O)[O-] [CBK264963],119.383
23,CS(=O)(=O)N(Cc1ccccc1)c1ccc(C(=O)Nc2ccc3c(c2)OCO3)cc1 [CBK033562],110.992
24,Cn1c(=O)[nH]c(=O)c2[nH]c(CN3CCN(Cc4ccccc4)CC3)nc21 [CBK269592],147.959
25,O=C1CC2(CCN(S(=O)(=O)c3ccc(F)cc3)CC2)CN1 [CBK283353],115.457
26,COc1cc(C2C(C(=O)c3ccc(C)o3)=C(O)C(=O)N2Cc2cccnc2)cc(OC)c1OC (stereo not drawn) [CBK264933],97.2363

row,Structure (SMILES),% of control remaining [%]
1,Cc1noc(C)c1C(=O)N1CCCC(c2nc(C)n3ccsc23)C1 (stereo not drawn) [CBK285211],107.165
2,CCCc1onc(S(=O)(=O)c2ccc(C)cc2)c1NC [CBK020322],158.057
3,O=C(c1cc2c(s1)CCC2)N1CCn2c(nnc2C2CC2)C1 [CBK283770],119.935
4,CCc1nnc(SCC(=O)Nc2cc(OC)ccc2OC)[nH]1 [CBK270167],110.268
5,c1cncc(-c2noc(-c3cc(C4CC4)[nH]n3)n2)c1 [CBK287973],128.617
6,NS(=O)(=O)c1ccc(Cn2c(=O)[nH]c3ncc(-c4ccco4)nc32)cc1 [CBK064948],106.43
7,Cc1c(C)c2c(O)n(-c3ccccc3)nc2[nH]c1=O [CBK287891],115.252
8,COc1ccc(Oc2cncc(OC3CCN(CC4CCCCC4)C3)n2)cc1OC (stereo not drawn) [CBK084413],100.527
9,Cc1cc(C)cc(N(C(C)C(=O)N2CCN(Cc3ccc4c(c3)OCO4)CC2)S(C)(=O)=O)c1 (stereo not drawn) [CBK269060],114.316
10,CCOc1ccc(S(=O)(=O)N2CCN(Cc3cc(F)c(F)c(F)c3)CC2)c2cccnc12 [CBK062795],63.5955
11,N[C@H]1C[C@H]2C(=O)NC[C@@H](CCC(=O)NCc3cccs3)N2C1 [CBK289005],144.09
12,CC(Oc1cc(Cl)ccc1Cl)c1nnc(S)n1C (stereo not drawn) [CBK288376],112.652
13,CC(Oc1cccc2ccccc12)C(=O)NN (stereo not drawn) [CBK261209],101.962
14,CCn1c(Cc2c(C)[nH]c3ccccc23)nnc1SCC(=O)NC12CC3CC(CC(C3)C1)C2 [CBK267529],115.193
15,CCN(CC)CCSc1nc2sc3c(c2c(=O)n1-c1ccc(OC)cc1)CCCC3 [CBK263308],127.59
16,CC1(C)CC(=O)C=C(C(=O)Nc2ccccc2N2CCCNCC2)O1 [CBK038935T],67.9152
17,C=CCNC(=S)Nc1sc2c(c1C(=O)OCC)CC(C)CC2 (stereo not drawn) [CBK268778],158.752
18,Nc1nc(SCCc2ccccc2)nc2sc3c(c12)CCCC3 [CBK263445],100
19,Cc1ccc2nc(NCCC(=O)O)nc(-c3ccccc3)c2c1 [CBK266537],147.415
20,CN(C)c1cccc(-c2ccc(Nc3ccc(N4CCOCC4)cc3)nc2)c1 [CBK037735],157.357
21,N#CCSc1nc(-c2cccnc2)ccc1C(=O)O [CBK269387],96.5943
22,CC(C)(C)OC(=O)N1CCC(Sc2ccc(-c3ccco3)cc2)CC1 [CBK122552],112.274
23,O=C(CSc1nnc(CN2CCOCC2)n1-c1ccc(Cl)cc1)N1CCN(c2ccccc2)CC1 [CBK269088],134.013
24,CC(Sc1nc(N)cc(=O)[nH]1)C(=O)Nc1ccc(S(N)(=O)=O)cc1 (stereo not drawn) [CBK266191],143.007
25,Cc1ccc(SC(C)C(=O)Nn2cnnc2)cc1 (stereo not drawn) [CBK268570],151.067
26,COc1cc(C(CC(C)NC(C)(C)C)c2ccccc2)ccc1OCc1ccccc1 (stereo not drawn) [CBK017901],111.043

row,Structure (SMILES),% of control remaining [%]
1,CCn1cc(CN(CC(C)C)C(=O)c2c(C)nc3ccccn23)cn1 [CBK306862],118.158
2,Cc1cc(-c2cn(C)nc2C2CCCCN2C(=O)C2CCCC2)on1 (stereo not drawn) [CBK283404],165.333
3,Cc1ccc(S(=O)(=O)NCCOc2ccc(Cl)cc2)cc1[N+](=O)[O-] [CBK263268],102.172
4,CCN(CC)S(=O)(=O)c1c(C)[nH]c(=O)[nH]c1=O [CBK018721],100.322
5,COc1ccc(-c2cc(C(=O)NCCc3ccccn3)cnc2-c2cccc(C)c2)cc1 [CBK036730],111.64
6,COc1ccc(-c2nc(NS(C)(=O)=O)cc3cccnc23)cc1C [CBK085677],100
7,CC(=O)Nc1ccc(CCOc2nccnc2/C=C/c2ccccc2)cc1 [CBK106880],163.373
8,CCOC(=O)c1cnc(SC(C)C(=O)N2CCc3ccccc32)nc1N (stereo not drawn) [CBK305007],125.724
9,Cc1ccc(C(=O)O)cc1N1C(=O)c2ccc(S(=O)(=O)c3ccc(C(=O)O)cc3)cc2C1=O [CBK262747],114.358
10,CC(=O)Nc1cccc(NC(=O)c2cccc(Cn3cc(Cl)cn3)c2)c1 [CBK265899],122.906
11,Cc1nc2nc(SCc3cc(=O)n4ccccc4n3)nn2c(C)c1Cc1ccccc1 [CBK294460],102.355
12,COc1cccc(CN2CCC(Cc3ccccc3-c3ccc(C)cc3C)(C(=O)O)CC2)c1 [CBK286420],136.6
13,COc1cc(OC)cc(-c2nnc(SCc3cccc(C(=O)O)c3)[nH]2)c1 [CBK268736],95.3908
14,O=C(COc1ccc2c3c(c(=O)oc2c1)CCC3)Nc1ccc(S(=O)(=O)N2CCOCC2)cc1 [CBK265640],100
15,O=C(Nc1cccc(I)c1)c1ccc(Oc2ccc(C(=O)Nc3cccc(I)c3)cc2)cc1 [CBK261201],110
16,CC(C)(Oc1ccc(Br)cc1)C(=O)NCCOc1ccccc1 [CBK268287],97.9143
17,Cc1ccc(OCC(=O)NC(=S)Nc2cc(-c3nc4ncccc4o3)ccc2Cl)cc1 [CBK265214],106.848
18,CC(=O)Oc1cc(Cl)ccc1C(=O)Nc1nnc(C(F)(F)F)s1 [CBK017569],116.431
19,Cc1nnc(NCCN2CCOCC2)[nH]c1=O [CBK267912],85.5624
20,Oc1nc(CN2CCN(Cc3ccc4c(c3)OCO4)CC2)nc2ccccc12 [CBK074355],113.606
21,NNC(=O)CSc1nnc2ccc(C(F)(F)F)cn12 [CBK006897],114.241
22,CN1CCC(N(C)C(=O)Nc2ccc(C(N)=O)cc2)C1 (stereo not drawn) [CBK156015],100
23,CCc1c(C)sc2ncn(C3CCN(C(=O)C(C)C)CC3)c(=O)c12 [CBK282377],109.061
24,Cc1cc(CNC(=O)[C@@H]2Cc3cn(C)c4cccc(c34)[C@H](CC(C)C)N2)no1 [CBK289420],130.941
25,Nc1ncc(-c2cccc(C(=O)O)c2)nc1-c1ccc(O)cc1 [CBK200420],132.82
26,O=C(Nc1ccnn1Cc1cccs1)N1Cc2cnn(CCO)c2C1 [CBK307150],119.319

# Entries shown so far containing two or more sulfur atoms:
row,Structure (SMILES),% of control remaining [%]
15,CCN(CC)CCSc1nc2sc3c(c2c(=O)n1-c1ccc(OC)cc1)CCCC3 [CBK263308],127.59
17,C=CCNC(=S)Nc1sc2c(c1C(=O)OCC)CC(C)CC2 (stereo not drawn) [CBK268778],158.752
18,Nc1nc(SCCc2ccccc2)nc2sc3c(c12)CCCC3 [CBK263445],100
24,CC(Sc1nc(N)cc(=O)[nH]1)C(=O)Nc1ccc(S(N)(=O)=O)cc1 (stereo not drawn) [CBK266191],143.007
